This passage reports binding results from paper PMC6934747.

No constants are given. Whether binding was seen depends on the method and setting. In cells and extracts the contact can be indirect. Some results given as binding are weak or reduced against the parent protein; the word gives no strength. Where a sequence is shown, tags or fusion partners need not be part of it.

In the assay the target is T1, myc-tagged human Crebl2 (human) (UniProt O60519).
T1 sequence: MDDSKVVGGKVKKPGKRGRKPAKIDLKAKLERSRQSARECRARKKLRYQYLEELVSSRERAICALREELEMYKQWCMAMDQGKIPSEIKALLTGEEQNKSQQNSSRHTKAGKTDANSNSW
In words: co-IP; myc-CREBL2 precipitated with anti-Myc tag antibody (9b11) and ProteinA/G beads from lysates of transfected cells (HEK293T by the legend, NIH3T3 by the methods); lysis buffer 50 mM Tris pH7.5, 150 mM NaCl, 1% Triton-X; 3xHA-CREBRF detected by anti-HA blot; with or without rapamycin treatment of the cells (no effect on the amount co-precipitated).

B1: 3xHA-tagged human Crebrf (protein, UniProt Q8IUR6 1-639)
chain: MPQPSVSGMDPPFGDAFRSHTFSEQTLMSTDLLANSSDPDFMYELDREMNYQQNPRDNFLSLEDCKDIENLESFTDVLDNEGALTSNWEQWDTYCEDLTKYTKLTSCDIWGTKEVDYLGLDDFSSPYQDEEVISKTPTLAQLNSEDSQSVSDSLYYPDSLFSVKQNPLPSSFPGKKITSRAAAPVCSSKTLQAEVPLSDCVQKASKPTSSTQIMVKTNMYHNEKVNFHVECKDYVKKAKVKINPVQQSRPLLSQIHTDAAKENTCYCGAVAKRQEKKGMEPLQGHATPALPFKETQELLLSPLPQEGPGSLAAGESSSLSASTSVSDSSQKKEEHNYSLFVSDNLGEQPTKCSPEEDEEDEEDVDDEDHDEGFGSEHELSENEEEEEEEEDYEDDKDDDISDTFSEPGYENDSVEDLKEVTSISSRKRGKRRYFWEYSEQLTPSQQERMLRPSEWNRDTLPSNMYQKNGLHHGKYAVKKSRRTDVEDLTPNPKKLLQIGNELRKLNKVISDLTPVSELPLTARPRSRKEKNKLASRACRLKKKAQYEANKVKLWGLNTEYDNLLFVINSIKQEIVNRVQNPRDERGPNMGQKLEILIKDTLGLPVAGQTSEFVNQVLEKTAEGNPTGGLVGLRIPTSKV
On to B1, for which the binding result was “binds”.
